Laboratory results from paper PMC9789960.
Results are given in words; binding and its absence hold for the method and conditions named. Binding seen in cells or lysates may run through a third protein. Some results given as binding are weak or reduced against the parent protein; the word gives no strength.

Chains of the proteins cited; added tags and fusions are not shown. Residues count along the entry.
UniProt Q9NZQ7, residues 19-290: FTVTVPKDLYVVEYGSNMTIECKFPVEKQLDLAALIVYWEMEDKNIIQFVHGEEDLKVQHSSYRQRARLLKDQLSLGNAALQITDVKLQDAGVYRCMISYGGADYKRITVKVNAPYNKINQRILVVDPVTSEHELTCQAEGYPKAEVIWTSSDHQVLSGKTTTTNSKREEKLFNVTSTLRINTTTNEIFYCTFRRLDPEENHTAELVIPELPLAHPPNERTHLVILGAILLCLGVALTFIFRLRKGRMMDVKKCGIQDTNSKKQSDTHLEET

T1: ZDHHC3 (human (endogenous in U251)) (UniProt Q9NYG2)
T1 sequence: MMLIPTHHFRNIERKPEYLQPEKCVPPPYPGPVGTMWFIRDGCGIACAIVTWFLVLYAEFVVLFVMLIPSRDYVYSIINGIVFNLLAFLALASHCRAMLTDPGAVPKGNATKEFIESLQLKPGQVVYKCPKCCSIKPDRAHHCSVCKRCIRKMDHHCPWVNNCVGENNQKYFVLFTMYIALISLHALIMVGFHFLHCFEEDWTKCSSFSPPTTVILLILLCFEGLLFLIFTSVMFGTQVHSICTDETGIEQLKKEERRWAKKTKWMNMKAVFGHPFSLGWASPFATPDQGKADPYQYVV

B1: ZDHHC3 (enzyme, UniProt Q9NYG2 1-299)
chain: T1 sequence

Key:
[1] = molecular target: T1, ZDHHC3 (human (endogenous in U251)); assay: co-IP; U251 cell lysates incubated with antibody-coupled Dynabeads overnight at 4 °C; ZDHHC3 or PD-L1 as bait; western blot
[2] = molecular target: programmed cell death ligand 1 (PD-L1) (human (endogenous in U251)) (UniProt Q9NZQ7); assay: as above

Molecule | binding [1] | binding [2]
programmed cell death ligand 1 (PD-L1) (from UniProt Q9NZQ7 19-290) | binds | 
B1 |  | binds
